Assay results taken from PubChem BioAssay AID588590 (National Center for Advancing Translational Sciences (NCATS), 2011).
Out of some 390,000 compounds screened, about 4,000 (1%) were called active. This list was built around the results that the source calls inconclusive (neither active nor inactive); the mix of calls is not that of the screen. Calls come from the whole dose curve; as a rule, active = well fitted inhibition curve with a large enough effect; inconclusive = small, poorly fitted or top-dose-only effect, or another doubt; inactive = no such curve, though single readings can be large or run the other way. Potencies of inconclusive entries are doubtful fits and often do not repeat.

Protein sequences, listed by entry. Tags and fused reporters are not part of them. Lines headed by an entry give the natural chain unless they say otherwise; changes in a name come on top.
UniProt Q9UNA4: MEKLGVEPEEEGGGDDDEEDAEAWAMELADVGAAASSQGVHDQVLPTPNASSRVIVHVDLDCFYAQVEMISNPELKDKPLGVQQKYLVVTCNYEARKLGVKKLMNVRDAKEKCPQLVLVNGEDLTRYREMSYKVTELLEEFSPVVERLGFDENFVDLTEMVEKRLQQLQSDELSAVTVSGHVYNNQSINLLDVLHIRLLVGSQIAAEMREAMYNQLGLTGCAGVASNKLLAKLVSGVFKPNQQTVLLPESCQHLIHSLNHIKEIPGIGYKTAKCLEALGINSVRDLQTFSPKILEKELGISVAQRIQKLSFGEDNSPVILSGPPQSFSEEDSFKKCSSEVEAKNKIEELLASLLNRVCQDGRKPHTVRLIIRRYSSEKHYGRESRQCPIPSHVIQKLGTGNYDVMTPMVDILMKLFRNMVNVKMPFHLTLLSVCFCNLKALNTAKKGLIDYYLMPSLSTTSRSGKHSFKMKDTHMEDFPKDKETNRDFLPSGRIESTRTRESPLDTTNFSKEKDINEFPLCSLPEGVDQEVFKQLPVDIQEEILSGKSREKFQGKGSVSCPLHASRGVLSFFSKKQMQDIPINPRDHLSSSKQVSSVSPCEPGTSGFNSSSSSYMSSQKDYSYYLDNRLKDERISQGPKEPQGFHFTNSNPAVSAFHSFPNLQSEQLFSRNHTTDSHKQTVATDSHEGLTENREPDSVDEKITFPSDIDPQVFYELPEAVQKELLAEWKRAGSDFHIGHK

These molecules were tested against DNA polymerase iota (Homo sapiens) (UniProt Q9UNA4) (assay: qHTS for Inhibitors of Polymerase Iota). Conditions: Pol iota fluorescent replication assay, 10 min; series mostly up to 115 µM; activity, negative = inhibition: at the top concentration.
Method in brief: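 Pol iota at 10 nM preincubated 15 min with compounds at room temperature; reaction started with fluorescent substrate, 50 nM final. Fluorescence read kinetically at 0 and 10 min; buffer-only wells as negative control.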
Potency is the fitted concentration of half-maximal effect.

| SMILES | Potency | activity, negative = inhibition |
| --- | --- | --- |
| COc1cc(OC)c2c(-c3ccccc3)cc(=O)oc2c1C(CCN1CCCCC1)c1ccc2c(c1)OCO2 (stereo unspecified) | inactive |  |
| O=c1oc(-c2ccccc2Cl)nc2ccsc12 | inconclusive: 31.6 µM [inhibitor, partial curve, poor fit] |  |
| O=C(Cn1c(=O)nc(-c2ccccc2)c2ccccc21)NCc1ccccc1Cl |  | inactive: 12.6% |
| COc1ccc(OC)c(NC(=O)CSc2nc3[nH]c(=O)[nH]c(=O)c3s2)c1 | inconclusive: 1.78 µM [inhibitor, full curve, poor fit] |  |
| Fc1ccc(NC(=S)NCCc2ccccc2)c(F)c1F |  | inactive: 23.7% |
| C/C(N)=C(/C#N)C(=O)COC(=O)c1cccc(C)c1O |  | inactive: 26.1% |
| CN(C)c1ccc(-c2noc(C3CCN(S(=O)(=O)c4cccc(C(=O)O)c4)CC3)n2)cc1 | inconclusive: 89.1 µM [inhibitor, single point] |  |
| Cc1ccc(Cl)cc1N1CCN(S(=O)(=O)c2ccc3c(c2)NC(=O)C(C)C(=O)N3)CC1 (stereo unspecified) | inconclusive: 50.1 µM [inhibitor, partial curve, poor fit] |  |
| CCCCN(C(=O)C1CCCC1)c1c(N)n(CC(C)C)c(=O)[nH]c1=O | inconclusive: 89.1 µM [inhibitor, partial curve] |  |
| COc1ccc(Cl)cc1NC(=O)c1c(NCc2cccnc2)sc2c1CCC(C)C2 (stereo unspecified) | inconclusive: 17.8 µM [inhibitor, single point] |  |
| Cc1cc(OC(C)C(=O)NC(Cc2c[nH]c3ccc(O)cc23)C(=O)O)c2c(C)cc(=O)oc2c1 (stereo unspecified) | inconclusive: 25.1 µM [inhibitor, partial curve, poor fit] |  |
| COc1ccc(NC(=O)/C=C/c2ccc(Br)o2)cn1 | active: 15.8 µM |  |
| COc1ccc(NC(=O)c2cc(-c3ccc(C)c(C)c3O)n[nH]2)cc1Cl |  | inactive: 9.26% |
| CCc1n[nH]c(=S)n1/N=C/c1cc(OC)cc([N+](=O)[O-])c1O | inconclusive: 22.4 µM [inhibitor, full curve, poor fit] |  |
| O=C(COC(=O)c1cc(S(=O)(=O)N2CCOCC2)c(Cl)cc1Cl)NCc1ccco1 | inconclusive: 44.7 µM [inhibitor, partial curve, poor fit] |  |
| CCN(CC)c1ccc(-c2nnc(SCC(=O)NCc3ccco3)n2C)cc1 |  | inactive: -2.94% |
| CCC(=O)Nc1ccc(C(=O)NNC(=O)c2ccc(Cl)cc2)cc1 |  | inactive: 15% |
| CC(C)CC(=O)N1CCN(C(=O)c2ccc(F)cc2)CC1 |  | inactive: 6.34% |
| COc1cccc(N2CC(NC(=O)c3cc(Cl)ccc3OC)CC2=O)c1 (stereo unspecified) | inconclusive: 1.58 µM [inhibitor, partial curve, poor fit] |  |
| O=S(=O)(c1cccnc1)N1CCN(c2nc(-c3cccs3)nc3ccccc23)CC1 | inconclusive: 79.4 µM [inhibitor, partial curve, poor fit] |  |
| CNC(=O)c1[nH]nc2c1CCc1ccccc1-2 |  | inactive: 128% |

Part of the list above in order of molar mass, low to high.

| SMILES | Potency | activity, negative = inhibition |
| --- | --- | --- |
| CN(C)c1ccc(-c2noc(C3CCN(S(=O)(=O)c4cccc(C(=O)O)c4)CC3)n2)cc1 | inconclusive: 89.1 µM [inhibitor, single point] |  |
| Cc1cc(OC(C)C(=O)NC(Cc2c[nH]c3ccc(O)cc23)C(=O)O)c2c(C)cc(=O)oc2c1 (stereo unspecified) | inconclusive: 25.1 µM [inhibitor, partial curve, poor fit] |  |
| O=C(COC(=O)c1cc(S(=O)(=O)N2CCOCC2)c(Cl)cc1Cl)NCc1ccco1 | inconclusive: 44.7 µM [inhibitor, partial curve, poor fit] |  |

(cont.)

| SMILES | Potency | activity, negative = inhibition |
| --- | --- | --- |
| O=C(COC(=O)c1ccccc1Cl)NCc1ccco1 | inconclusive: 56.2 µM [inhibitor, partial curve, poor fit] |  |
| COc1cccc(N2CC(C(=O)Nc3ccc(F)cc3)CC2=O)c1 (stereo unspecified) | inconclusive: 63.1 µM [inhibitor, partial curve, poor fit] |  |
| C/C(=N\Nc1ccc(Cl)c(C(=O)O)c1)c1cccs1 | inconclusive: 15.8 µM [inhibitor, full curve] |  |
| Cc1cc(SCC(=O)NC(=O)NCc2ccco2)nc2c(C)cccc12 | inconclusive: 20 µM [inhibitor, full curve] |  |
| COc1ccc(-c2onc(C)c2C)cc1S(=O)(=O)N(C)Cc1ccccc1 |  | inactive: 9.15% |
| NCCCC[C@H]1NC(=O)[C@H](CCC(=O)O)NC(=O)c2cc([N+](=O)[O-])cc(I)c2OCC[C@@H](C(N)=O)NC1=O | active: 8.91 µM |  |
| N#Cc1c(C(F)(F)F)cc(-c2cccs2)nc1SCC(=O)Nc1cccc(Cl)c1 | inconclusive: 89.1 µM [inhibitor, single point] |  |
| O=C(Oc1coc(CSc2nnc(NC(=O)c3cccs3)s2)cc1=O)c1ccccc1 | inconclusive: 22.4 µM [inhibitor, full curve, poor fit] |  |
| CCN(CC)c1ccc(/C=N/Nc2ccccc2)c(O)c1 | inconclusive: 15.8 µM [inhibitor, full curve] |  |
| CCN(C[C@H]1N[C@@](Cc2ccccc2)(C(=O)OC)[C@H]2C(=O)N(C)C(=O)[C@@H]12)C(C)=O | inconclusive: 28.2 µM [inhibitor, single point] |  |
| O=C(N/N=C/c1cccc(O)c1)c1ccc(-n2cnnn2)cc1 | inconclusive: 11.2 µM [inhibitor, partial curve, poor fit] |  |
| N#Cc1nc(COc2ccc(Cl)cc2)oc1NCc1ccc2c(c1)OCO2 | inconclusive: 44.7 µM [inhibitor, partial curve, poor fit] |  |
| COc1ccc(NC(=O)CSc2nc3[nH]c(=O)cc(O)c3s2)cc1OC | inconclusive: 4.47 µM [inhibitor, full curve, poor fit] |  |
| O=C(CSc1nnc(-c2ccco2)o1)c1ccc[nH]1 | active: 14.1 µM |  |
| COC(=O)Cn1c(=NC(=O)c2ccc(S(=O)(=O)N3CCOCC3)cc2)sc2cc(S(N)(=O)=O)ccc21 | inconclusive: 89.1 µM [inhibitor, single point] |  |
| CCOc1ccc(OCCC(=O)OC(C)C(=O)Nc2ccc(C(C)=O)cc2)cc1 (stereo unspecified) | inconclusive: 79.4 µM [inhibitor, partial curve, poor fit] |  |
| COc1ccc(NC(=O)NC(C)(C(F)(F)F)C(F)(F)F)cc1 | inconclusive: 89.1 µM [inhibitor, single point] |  |
| COc1cc(OC)c2ccc(=O)oc2c1C(CCN1CCCC(C)C1)c1ccc(N(C)C)cc1 (stereo unspecified) | inconclusive: 70.8 µM [inhibitor, single point] |  |
| Cc1ccc(NC(=O)CSc2nnc(-c3cccnc3)n2CCN2CCCCC2)cc1 | inconclusive: 89.1 µM [inhibitor, partial curve, poor fit] |  |
| CCN(C(=O)COC(=O)C1=COCCO1)c1ccccc1 | inconclusive: 31.6 µM [inhibitor, single point] |  |
